Measurements taken from publication doi:10.1101/2022.10.26.513834.
These are yes or no findings as the source states them, for the method shown.

Target: PbE3-2 without signal peptide, bait in pGBKT7 (Plasmodiophora brassicae)
Experiment: two-hybrid

B1: Arabidopsis cysteine protease 1 (AtCP1), yeast two-hybrid prey (enzyme, UniProt Q9FDX6 1-160)
chain: MCPSGRIAIPITTTANPNFRPAFEIIDTDHDGKISSDDLRAFYAGIPSGENNDETMIGTMISVADANKDGFVEFDEFEKVLETTPFSRSGNGGDDGLMKDVFKVMDKDGDGRLSYGDLKSYMDSAGLAVTDDEIKSMIRLAGGDLNDGVSFDGLLKIFGC
B1 was tested. Which binding did it give?
Its binding is “no binding”.
